{"source": "patent US9309537B2", "about": "“Chimeric rat produced using rat embryonic stem cells in the presence of an ES cell differentiation suppressant” (National Cancer Center, priority 2009, dated 2016)", "tested_on": "rat ES cells injected into host blastocysts", "assay": "Preparation of germline transmission chimeric rats by injection of rat ES cells into host blastocysts in the presence of inhibitors", "type": "in vivo", "settings": "cell line TgWL1, host blastocyst Wistar", "note": "For at least one compound, name, drawing or mass did not settle the structure."}
{"compound": "C[C@@H](N)[C@H]1CC[C@H](C(=O)Nc2ccncc2)CC1", "note": "[Y, Y-27632]", "values": [{"measurement": "Germline chimera", "value": "NO"}]}
